For at least one compound, name, drawing or mass did not settle the structure.
Legend:
[1] = test system: complex including C3G, Crk-L, and Cb1; experiment: Cb1/Crk-L/C3G complex formation (myc-Cb1 immunoprecipitation), NIH3T3 cells; format: cell-based
Text: To determine if Cb1 forms part of a complex, cells were stimulated with Forskolin in the presence or absence of H89 or PP2 and lysates generated as described above. Myc-Cb1 was immunoprecipitated from treated cells and the pellets analyzed by Western blot using antibodies specific for Crk-L and C3G. Total cell lysates were examined for myc-Cb1 by Western blot using a myc antibody (Santa Cruz Biotechnology Inc.). NIH3T3 cells express Crk-L, an isoform of Crk that is constitutively bound to C3G.

ERK1/2 = ERK1/2 phosphorylation Western blot, NIH3T3 cells; format: cell-based; conditions: pretreated five minutes
Protocol: To determine the role of SFKs in cAW's antagonism of extracellular signal regulated kinase (ERK) activation, the following methods were used. NIH3T3 cells were incubated in the presence or absence of either H89 or PP2 for 20 minutes, pretreated with Forskolin for five minutes, and then stimulated with 100 ng/ml, epidermal growth factor (EGF, Sigma), or 100 ng/ml platelet-derived growth factor (PDGF, Sigma) for five minutes, as described in EXAMPLE 1. Cell lysates were analyzed by Western blot for phosphorylation of endogenous ERK1/2 or total ERK2. To detect phosphorylation of endogenous ERK1/2, phosphorylation-specific ERK antibodies (PERK) that recognize phosphorylated ERK1 (pERK1) and ERK2 (pERK2), at residues threonine 183 and tyrosine 185 were used (New England Biolabs, Beverly, Mass.).

Src++ and SYF cells = experiment: MTT assay for cell proliferation; format: cell-based, mouse; conditions: 48 hours
Protocol: To determine the effect of Src on cell proliferation, the following protocol was used. Src^++ and SYF cells were serum-starved overnight and plated onto 96 well plates. Cells were then treated with PDGF, EGF, Forskolin, H89, and/or PD98059 (PD, 10 μM, Cal Biochem). Cells were analyzed 48 hours later by MTT assay and data quantified (n=4±S.E.). The MTT assay for cell proliferation was conducted as follows (Schmitt and Stork, Mol. Cell. Biol. 21:3671-83, 2001). Briefly, 2.5 hours prior to lysis, 20 μl of sterile […] MTT (Sigma) was added to the cells and allowed to incubate at 37° C. At the appropriate time, cells were lysed and proteins solubilized in 50% volume/volume H2O and N,N,-dimethylformamide containing 20% SDS, 0.5% of 80% acetic acid, and 0.4% 1M HCL Plates were read using a microplate reader and presented as the difference between optical densities at […].
To quantitate cell proliferation, cells were analyzed 48 hours later by MTT assay (see EXAMPLE 3) and data was quantified (n=4±S.E.). […] Expression of Flag-Src in SYF cells restored Forskolin's ability to inhibit PDGF- and EGF-mediated cell growth.

Src [2] = experiment: Src autophosphorylation at tyrosine 416 (Western blot); format: cell-based; conditions: endogenous Src and transfected Flag-Src
Protocol: To examine the mechanism of cAMP regulation of Src, Src kinase activity was assayed in vivo by monitoring autophosphorylation of Src at tyrosine 416 (Tyr416) using previously disclosed methods (Brown and Cooper, Biochim. Biophys. Acta 1287:121-49, 1996; Martin, Nat. Rev. Mol. Cell. Biol. 2:467-75,2001).
[…] Cell lysates were prepared, and Src immunopreciptiated and analyzed by Western blot for either tyrosine phosphorylation at site 416 (p416Src) using phospho-Src (Tyr416) antibodies (Cell Signaling Technology), Flag-Src, or analyzed by Western blot for either PKA phosphorylation or Src (using Src antibodies, Santa Cruz Biotechnology Inc.), using the methods described above. Alternatively, Flag-Src was immunoprecipitated from the cell lysates and analyzed by Western blot for either Cb1 or Flag-Src.
The activation of wild type Src by Forskolin was confirmed by observing autophosphorylation of Src at Tyr416 and using an in vitro kinase assay. To measure autophosphorylation of Src at Tyr416, SYF cells were transfected with either Flag-Src (WT) or Flag-SrcS17A and treated with Forskolin and PDGF or EGF, as described above. Flag-Src was immunoprecipitated from cell lysates and analyzed by Western blot for either phosphorylation of Src on Tyr416 or the presence of Flag-Src. […]

Src [3] = experiment: PKA phosphorylation of Src in cells (phospho-PKA substrate antibody); format: cell-based; conditions: endogenous Src
Src and Cb1 = experiment: Association between Src and Cb1 in Flag-Src-transfected SYF cells; format: cell-based, mouse

Structure (SMILES): C=C[C@@]1(C)CC(=O)[C@]2(O)[C@@]3(C)[C@@H](O)CCC(C)(C)[C@@H]3[C@H](O)[C@H](OC(C)=O)[C@@]2(C)O1 [Forskolin]
- Formation of C3G/Crk-L/Cb1 complex [1]: stimulated the formation of a complex
- Effect on EGF- and PDGF-mediated ERK activation (ERK1/2): blocked both EGF- and PDGF-mediated ERK activation
- Effect on growth factor stimulation of cell growth (Src++ and SYF cells; SYF cells): unable to inhibit
- Effect on PDGF stimulation of proliferation (Src++ and SYF cells; Src++ cells): inhibited
- Phosphorylation of Src at tyrosine 416 (Src [2]): stimulated phosphorylation of Src at tyrosine 416
- Recognition of Src by phospho-PKA substrate (RXXpS/T) antibody (Src [3]): increased
- Association between Src and Cb1 (Src and Cb1): induced an association between Src and Cb1

From patent US20050037446A1, “Agents that recognize src when phosphorylated at serine 17” (priority 2001, published 2005)
